Measurements as given in paper PMC12313696.

Sequences of proteins named here, by UniProt entry; tags and fusion partners are left off. A change or cut given only in a name is not applied to a line headed by its entry.
UniProt P15692: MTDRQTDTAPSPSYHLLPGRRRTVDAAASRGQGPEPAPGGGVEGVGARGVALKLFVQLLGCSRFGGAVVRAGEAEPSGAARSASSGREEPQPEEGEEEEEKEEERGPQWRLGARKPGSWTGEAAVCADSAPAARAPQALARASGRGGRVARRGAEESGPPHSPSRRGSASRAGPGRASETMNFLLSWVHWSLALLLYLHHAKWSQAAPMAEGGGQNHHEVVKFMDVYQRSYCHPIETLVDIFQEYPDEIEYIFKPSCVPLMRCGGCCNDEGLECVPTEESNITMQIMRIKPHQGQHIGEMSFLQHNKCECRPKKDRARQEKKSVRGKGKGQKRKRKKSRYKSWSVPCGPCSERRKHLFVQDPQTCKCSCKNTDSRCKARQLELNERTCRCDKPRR

Molecular target: VEGF (UniProt P15692)
Assay: SERS competition sensor (aptamer displaced from surface duplex by VEGF)
Conditions: Au TOH capture substrate, Au@Pd NR ssDNA1 probe, TMB/H2O2 read-out, LOD 0.11 pg/mL is not an affinity; duplex hybridized in 8 mM phosphate, 0.8 mM MgCl2, 20 mM NaCl; VEGF in serum; PBS wash; TMB read-out at pH 4.5 (sodium acetate), 30 C, 14 min; native protein; single-stranded DNA

“TTTTTTTTTTGTGGGGGTGGACGGGCCGGGTAGA [VEGF aptamer]”: binds.

The exact form of at least one protein or probe is not confirmed. At least one verdict rests on a figure or table, not on a statement of the authors.
